The list shows a part of the results. Further columns of the screen follow, without active or inactive calls. The list favours compounds with an active or inconclusive main result. The note in brackets gives the kind of curve behind each potency; many fits are weak.
Experiment: qHTS Assay for Lipid Storage Modulators in Drosophila S3 Cells;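 on cell number change: cells counted by Cell Tracker Red CMTPX staining in the red channel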
Conditions: BODIPY lipid droplet fluorescence, 18-24 h; for cell number change: measured here: cell count max response, cells fed with added oleic acid
In short: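 Drosophila S3 cells loaded with oleic acid (400 uM, as added) and compounds at several concentrations; lipid droplets imaged by 488-nm laser-scanning cytometry, 500–530 nm intensity and object ratio to cell channel. Percent activity normalized to 20 uM Triacsin C.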

[1] = measured here: lipid fluorescence (Fed channel) AC50, cells fed with added oleic acid
[2] = measured here: cell number channel AC50, cells fed with added oleic acid

## O=C(NCCCN1CCOCC1)c1ccc(-n2nc(C(F)(F)F)cc2-c2cccs2)cc1
  cell number change: -3.02%
[1]
  AC50: 6.51 µM [rising, partial curve]

## CC(C)CNC(=O)COC(=O)c1cc(S(=O)(=O)N2CCCCC2)ccc1N1CCOCC1
  cell number change: -28.6%
[1]
  AC50: 16.4 µM [falling, single point]

## COc1ccc(-c2cc(CNS(=O)(=O)c3cc(OC)ccc3OC)on2)cc1
  cell number change: -21.5%
[1]
  AC50: 7.08 µM [falling, partial curve]

## COc1cc2c(cc1OC)CN(C(=O)c1cc(S(=O)(=O)N3CCOCC3)ccc1Cl)CC2
  cell number change: -15.5%
[1]
  AC50: 0.00517 µM [rising, full curve, poor fit]

## Fc1ccc(Cn2nnc(-c3ccc(Cl)cc3)n2)cc1
  cell number change: -26.4%
[1]
  AC50: 29.1 µM [falling, single point]

## CC1Cc2ccccc2N1S(=O)(=O)c1cccc(C(=O)NCCCO)c1 (stereo not given)
  cell number change: -17.5%
[1]
  AC50: 0.184 µM [rising, full curve, poor fit]

## Cc1oc(/N=C/c2ccc(F)cc2)c(C#N)c1C
  cell number change: 7.46%
[1]
  AC50: 0.58 µM [rising, full curve]

## O=C(NCC1CCCO1)c1cccc(S(=O)(=O)N(Cc2ccccc2)c2ccccc2)c1 (stereo not given)
[1]
  AC50: 6.51 µM [falling, single point]

## Oc1c(C(Nc2cccc(C(F)(F)F)c2)c2cccnc2)ccc2cccnc12 (stereo not given)
  cell number change: -25.1%
[1]
  AC50: 32.6 µM [falling, single point]

## COc1cccc(N2CCN(CC(=O)C34CC5CC(CC(C5)C3)C4)CC2)c1
[1]
  AC50: 8.2 µM [falling, partial curve]

## CCOC(=O)c1ccccc1NC(=O)c1cccc(F)c1
  cell number change: 83.2%
[2]
  AC50: 8.2 µM [rising, partial curve]
[1]
  AC50: 16.4 µM [rising, partial curve]

## COCCCN1C(=O)C(=O)/C(=C(/O)c2ccc(OC)cc2)C1c1ccc(O)c(OC)c1 (stereo not given)
[2]
  AC50: 0.731 µM [falling, single point]
[1]
  AC50: 0.92 µM [falling, single point]

## CCC1CN(C(=O)NCc2cccc(OC)c2)c2ccccc2O1 (stereo not given)
  cell number change: 81.6%
[2]
  AC50: 20.6 µM [rising, single point]
[1]
  AC50: 29.1 µM [rising, single point]

## COC(=O)C(=O)C/C(=N/Nc1ncnc2ccccc12)c1ccc(Cl)cc1
[1]
  AC50: 0.164 µM [falling, full curve, poor fit]

## N#Cc1nc(Cc2cccc3ccccc23)oc1NCC1CCCO1 (stereo not given)
  cell number change: 38.4%
[2]
  AC50: 23.1 µM [rising, single point]

## COc1ccc(-c2[nH]c(-c3ccccc3)nc2SCC(=O)NC2CCCC2)cc1
  cell number change: 1.05%
[1]
  AC50: 1.64 µM [rising, partial curve]

## O=C(CSc1nnnn1-c1ccccc1)NCc1cccs1
  cell number change: 42.2%
[2]
  AC50: 29.1 µM [rising, single point]
[1]
  AC50: 6.51 µM [rising, single point]

## O=c1oc2c3c4c(cc2c2c1CCC2)OCCN4CCC3
  cell number change: 90.3%
[2]
  AC50: 8.2 µM [rising, partial curve]
[1]
  AC50: 9.2 µM [rising, partial curve]

## CCSc1nc(O)c(CC)c(=O)n1C(C)CC (stereo not given)
  cell number change: 7.62%

## CC(C)Nc1nc(NC(C)C)nc(SCCOC(=O)Nc2ccc(Cl)cc2Cl)n1
  cell number change: 45.4%
[2]
  AC50: 2.91 µM [rising, partial curve]
[1]
  AC50: 5.8 µM [rising, partial curve]

## COc1cccc(NC(=O)[C@H](NC(=O)[C@@H]2Cc3ccccc3CN2)c2ccccc2)c1
  cell number change: -3.07%

## COC(=O)C(C)(C(=O)OC)c1ccc([N+](=O)[O-])cn1
[1]
  AC50: 4.61 µM [falling, full curve, poor fit]

## Cn1c(=Nc2ccc(N3CCOCC3)cc2)ccc2ccccc21
  cell number change: 11.6%
[1]
  AC50: 3.66 µM [rising, full curve, poor fit]

## CC(C)(O)C#Cc1ccc(C(=O)N2CCCC(CNS(=O)(=O)c3cccs3)C2)o1 (stereo not given)
[1]
  AC50: 29.1 µM [falling, single point]

## c1ccc(CN=C2NN=C(c3ccccc3)CS2)cc1
  cell number change: -14.3%
[1]
  AC50: 2.31 µM [rising, partial curve]

## COc1c(CC=C(C)C)cc(C2CC(=O)c3c(O)cc(O)cc3O2)cc1CC=C(C)C (stereo not given)
  cell number change: -72.7%
[2]
  AC50: 20.6 µM [falling, single point]
[1]
  AC50: 16.4 µM [falling, single point]

## CCOc1ccccc1C(=O)OCC(=O)Nc1ncc(C(F)(F)F)cc1Cl
  cell number change: 23.6%

## CCN1CC(CNC(=O)c2ccc3nc(Cc4cccc(Cl)c4)oc3c2)CC1=O (stereo not given)
[1]
  AC50: 6.51 µM [rising, single point]

## O=C(COc1ccccc1)Nc1nc(-c2ccncc2)cs1
  cell number change: -6.82%
[1]
  AC50: 0.00517 µM [falling, full curve, poor fit]

## COc1ccc(OC)c(NC(=O)c2cc(S(=O)(=O)N3CCCC3)cn2C)c1
  cell number change: 15.6%
[2]
  AC50: 0.00461 µM [rising, full curve, poor fit]

## CCOC(=O)c1c(C)[nH]c(C)c1C(=O)COC(=O)c1cccc(S(=O)(=O)NC)c1
  cell number change: 0.606%

## O=C(NNC(=O)c1ccc(S(=O)(=O)N2CCCCC2)cc1)c1ccc(F)cc1
  cell number change: 31.3%
[2]
  AC50: 29.1 µM [rising, partial curve, poor fit]

## CC1CCN(S(=O)(=O)c2cn(CC(=O)Nc3cccc(C#N)c3)cn2)CC1
  cell number change: 10.2%
[1]
  AC50: 29.1 µM [rising, single point]

## COc1cccc(NC(=O)c2ccccc2C(F)(F)F)c1
  cell number change: 7.4%
[1]
  AC50: 0.00651 µM [falling, full curve, poor fit]

## COCc1[nH][nH]c(=O)c1C=Nc1ccc(Cl)cc1
  cell number change: -5.07%
[1]
  AC50: 0.291 µM [falling, full curve, poor fit]

## COC(=O)c1ccccc1S(=O)(=O)N1CCC(c2nc3ccccc3o2)CC1
  cell number change: 15.6%
[1]
  AC50: 7.31 µM [rising, partial curve]

## CCOc1ccc(NC(=O)CN(C)C(=O)c2ccc(C)c(S(=O)(=O)N3CCCCC3)c2)cc1OCC
  cell number change: -10.2%

## CCCn1c(C)cc(C(=O)COC(=O)c2ccc(Cl)c(S(=O)(=O)N3CCCC3)c2)c1C
  cell number change: -4.15%
[1]
  AC50: 0.259 µM [falling, full curve]

## CCCCNCc1cc(Br)c(OCC(=O)NCc2ccccc2)c(OC)c1
  cell number change: 38.1%
[2]
  AC50: 2.31 µM [rising, partial curve]

## C[C@H](NS(=O)(=O)c1ccccc1F)C(=O)OCC(=O)N1CCc2ccccc21
  cell number change: 21.8%
[1]
  AC50: 1.3 µM [falling, partial curve]

## COc1ccc2nc(Nc3nc(C)c(C(C)=O)s3)sc2c1
  cell number change: -51.6%
[2]
  AC50: 20.6 µM [falling, partial curve]
[1]
  AC50: 23.1 µM [falling, single point]

## CCOC(=O)c1sc2nc(C)nc(NCc3ccccc3OC)c2c1C
[1]
  AC50: 1.16 µM [rising, partial curve]

## COc1cccc(CNC(=O)C2CCN(Cc3cnn(-c4ccccc4)c3-n3cccc3)CC2)c1
  cell number change: -24.5%
[1]
  AC50: 36.6 µM [falling, partial curve, poor fit]

## COc1ccc(N2CCN(CC(=O)c3c(C)n(C)c4ccc(OC)cc34)CC2)cc1
  cell number change: 0.875%
[1]
  AC50: 0.651 µM [rising, single point]

## Cn1c(SCC(=O)N2CCc3ccccc32)nnc1C1CC1
[1]
  AC50: 29.1 µM [falling, single point]

## CCOc1cc(N2CCOCC2)c(OCC)cc1NC(=O)COC(=O)c1ccc(Cl)cc1N
  cell number change: -16.5%
[1]
  AC50: 0.58 µM [rising, single point]

## O=C(N/N=C\c1ccccn1)C1COc2cc3ccccc3cc2O1 (stereo not given)
  cell number change: -11%
[1]
  AC50: 23.1 µM [falling, single point]

## CCOc1ccc(S(=O)(=O)Nc2ccc(S(=O)(=O)N3CCCC3)cc2)cc1
[2]
  AC50: 6.51 µM [falling, single point]
[1]
  AC50: 6.51 µM [falling, single point]

## CCC1Nc2ncnc(N3CCOCC3)c2N(Cc2ccc(C)cc2)C1=O (stereo not given)
  cell number change: -20.7%

## O=C(NCc1cccs1)C(=O)NCC1OCCCN1S(=O)(=O)c1cc(F)ccc1F (stereo not given)
  cell number change: 2.09%

## Cc1ccc(C(=O)NC(=S)Nc2ccc(N3CCN(C(=O)c4ccco4)CC3)cc2)cc1
  cell number change: -50.8%
[2]
  AC50: 16.4 µM [falling, single point]
[1]
  AC50: 8.2 µM [falling, partial curve]

## N/C(=N\OC(=O)c1ccc(Br)cc1)c1ccncc1
  cell number change: 12.6%

## C[C@@H]1CN(CCCn2c3ccccc3c3ccccc32)C[C@H](C)N1
  cell number change: 14.3%
[1]
  AC50: 29.1 µM [rising, single point]

## O=C(N/N=C/c1ccc(O)c([N+](=O)[O-])c1)c1ccncc1
[1]
  AC50: 0.58 µM [rising, single point]

## Cc1ccc(CN2CCN(Cc3ccc(O)cc3)CC2CCO)o1 (stereo not given)
  cell number change: -1.69%
[1]
  AC50: 0.651 µM [falling, single point]

## Cc1ccc(C)c(Cn2c(=O)n(-c3ccc(CC(=O)NCc4ccco4)cc3)c(=O)c3sccc32)c1
  cell number change: 17.2%

## CCOc1ccc(NC(=O)COC(=O)CSCC(=O)Nc2ccc(C)cc2C)cc1
  cell number change: 38.4%
[2]
  AC50: 10.3 µM [rising, partial curve]
[1]
  AC50: 13 µM [rising, single point]

## CCOC(=O)C(C)Sc1nc2c(cnn2-c2ccc(F)cc2)c(=O)[nH]1 (stereo not given)
  cell number change: 18.5%

## CCOC(=O)Cc1cc(=O)[nH]c(/N=C(\N)Nc2ccc(C)cc2C)n1
  cell number change: -4.51%
[2]
  AC50: 0.206 µM [rising, full curve, poor fit]

## O=C(Nc1ccc(F)cc1)C1CCCN(S(=O)(=O)c2cccc3nonc23)C1 (stereo not given)
  cell number change: 102%
[2]
  AC50: 18.4 µM [rising, partial curve]
